The other results are listed elsewhere or left out. These are further read-outs of the screen, such as a control signal, another cell line or another target. No call is given for them. Compounds called inactive in the main read-out are mostly missing here. Words in brackets tell the shape of the fitted curve; partial curves, single points and poor fits give uncertain potencies.
Experiment: qHTS Assay for Lipid Storage Modulators in Drosophila S3 Cells;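 on cell number change: cells counted by Cell Tracker Red CMTPX staining in the red channel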
Conditions: BODIPY lipid droplet fluorescence, 18-24 h; for cell number change: measured here: cell count max response, cells fed with added oleic acid
Outline: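 Drosophila S3 cells loaded with oleic acid (400 uM, as added) and compounds at several concentrations; lipid droplets imaged by 488-nm laser-scanning cytometry, 500–530 nm intensity and object ratio to cell channel. Percent activity normalized to 20 uM Triacsin C.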

[1] = measured here: lipid fluorescence (Fed channel) AC50, cells fed with added oleic acid
[2] = measured here: cell number channel AC50, cells fed with added oleic acid

Row | Structure (SMILES) | cell number change [%] | AC50 [1] | AC50 [2]
1 | O=C(Nc1ccc2nc(-c3ccccc3)[nH]c2c1)c1cccs1 | 18.2 | 0.517 µM [rising, partial curve, poor fit] | 
2 | COC(=O)c1cc(OC)c(OC)cc1NC(=O)c1ccc(OC)cc1 | -48.1 |  | 29.1 µM [falling, single point]
3 | Cc1c(OCC(=O)NCc2cccnc2)ccc2c3c(c(=O)oc12)CCCC3 | -23.8 |  | 0.291 µM [falling, full curve, poor fit]
4 | COc1ccccc1N(C)S(=O)(=O)c1ccc(C)c(C(=O)NCc2ccccn2)c1 | -8.06 | 0.461 µM [rising, partial curve, poor fit] | 
5 | Nc1nc(SCC(=O)N2CCCc3ccccc32)n(-c2ccccc2)n1 | 15.6 |  | 
6 | O=C1CCC(C(=O)Nc2ccc(Cl)cc2)N1 (stereo unspecified) | 20.9 | 29.1 µM [rising, single point] | 
7 | CC1(C)Cc2nc3oc4c(NCc5ccccc5)ncnc4c3cc2CO1 | -1.35 | 0.326 µM [falling, single point] | 
8 | O=C(CSCc1c(Cl)cccc1Cl)Nc1ccc2c(c1)OCCO2 | -5.62 |  | 
9 | Cc1ccccc1-c1nnc(-c2cccs2)o1 | -20.8 |  | 
10 | CN(CC(=O)Nc1ccc(N2CCOCC2)cc1)CC(=O)Nc1ccc([N+](=O)[O-])cc1Br | 15.9 | 0.731 µM [rising, full curve] | 0.651 µM [rising, partial curve]
11 | CCN(CC)S(=O)(=O)c1ccc2[nH]c(=O)cc(C(=O)Nc3ccc(C)c(S(=O)(=O)N(CC)CC)c3)c2c1 | -27.4 | 0.82 µM [falling, full curve, poor fit] | 
12 | COc1cc(NC(=O)CN(c2cc(C)cc(C)c2)S(=O)(=O)c2c(C)[nH]c(=O)[nH]c2=O)cc(OC)c1 | -55.1 |  | 29.1 µM [falling, single point]
13 | Cc1ccc(S(=O)(=O)/N=C2\C=C(Nc3cccc(C(=O)O)c3)C(=O)c3ccccc32)cc1 | -0.901 | 29.1 µM [falling, single point] | 
14 | COc1cccc(C(C(=O)NC(C)(C)C)N(CCc2ccccc2)C(=O)CCC(=O)Nc2cc(C)on2)c1OC (stereo unspecified) | 12.1 |  | 
15 | Cc1ccc(-c2nn(-c3ccccc3)cc2CN(Cc2ccccc2)C(=O)c2ccco2)o1 |  | 0.651 µM [rising, full curve] | 1.84 µM [rising, partial curve]
16 | CC(C)C1OC(c2cccc(NC(=O)c3cccs3)c2)OCC1(C)C (stereo unspecified) | -21.4 | 16.4 µM [falling, partial curve, poor fit] | 0.00461 µM [falling, full curve, poor fit]
17 | Cc1c(NC(=O)C(C)OC(=O)/C=C/c2ccc3c(c2)OCO3)c(=O)n(-c2ccccc2)n1C (stereo unspecified) | 31.6 |  | 
18 | COCc1nnc(N)s1 | -19.6 | 6.51 µM [falling, partial curve] | 
19 | O=C(Nc1nc2c(Br)cccc2s1)C1CC1 | -6.05 | 0.00517 µM [falling, full curve, poor fit] | 
20 | COc1cccc(NC(=O)COC(=O)C2CC(=O)N(c3ccc(C)cc3)C2)c1 (stereo unspecified) | -0.304 |  | 
21 | NS(=O)(=O)c1ccc(CNC(=O)c2ccc3ccccc3n2)cc1 | -23.8 | 6.51 µM [falling, single point] | 
22 | CCN1C(=O)/C(=C\N2CCOCC2)SC1=S | -98.7 |  | 32.6 µM [falling, partial curve]

Row | Structure (SMILES) | cell number change [%] | AC50 [1] | AC50 [2]
23 | Cc1cccnc1NC(=O)c1cccc(S(=O)(=O)N2CCCC2)c1 | 16.9 | 0.058 µM [rising, full curve, poor fit] | 0.013 µM [rising, full curve, poor fit]
24 | CCOC(=O)N1CCC(N2Cc3cccc(C(=O)N4CC(C)CC(C)C4)c3C2=O)CC1 (stereo unspecified) | 36.8 |  | 29.1 µM [rising, single point]
25 | C=C(C)CC(NCCc1ccccc1)c1ccco1 (stereo unspecified) | -14.6 |  | 
26 | Cc1ccc(C(=O)OCC(=O)NN2C(=O)NC3(CCC(C)CC3)C2=O)cc1 (stereo unspecified) | -3.5 |  | 
27 | O=C(O)[C@@H](c1ccccc1)N1Cc2ccccc2C1=O | 14.2 | 3.66 µM [rising, single point] | 
28 | CS(=O)(=O)Nc1ccc(C(=O)Nc2ccc3ccccc3c2)cc1 | 68.6 | 6.51 µM [rising, partial curve, poor fit] | 16.4 µM [rising, partial curve, poor fit]
29 | Nc1nonc1-n1nnc(C(=O)N/N=C/c2ccccc2Cl)c1-c1ccc2c(c1)OCO2 | 23.1 | 6.51 µM [falling, single point] | 
30 | Oc1ccc(Br)cc1/C=N/n1c(C2CCCCC2)n[nH]c1=S | 2.78 | 0.58 µM [falling, single point] | 
31 | O=C(NCC1CCCO1)C(=Cc1cccc([N+](=O)[O-])c1)C(=O)NCC1CCCO1 (stereo unspecified) | -2.53 | 18.4 µM [falling, single point] | 
32 | CCOC(=O)c1c(C)[nH]c(C(=O)OCC(=O)Nc2ccc(OCC)cc2)c1C | 46 |  | 16.4 µM [rising, partial curve, poor fit]
33 | Nc1nc2nonc2nc1N | -19 | 0.731 µM [falling, single point] | 
34 | COc1ccccc1CNC(=O)c1ccc2c(c1)OCO2 | -33.3 |  | 
35 | Cc1cc(C)c(C#N)c(SCC(=O)N(CCC#N)c2ccc3c(c2)OCCO3)n1 | 11.6 |  | 
36 | C[C@H]1CN=C(Nc2ccccc2)N1CCCC1CCCCC1 | 8.68 | 0.13 µM [falling, full curve, poor fit] | 
37 | COc1ccc(OC)c(CNC(=O)CCc2cn(C)c3ccccc23)c1 | -6.38 | 25.9 µM [falling, single point] | 
38 | O=C1OC(/C(=C\Nc2ccccc2)[N+](=O)[O-])c2ccccc21 (stereo unspecified) | -15.4 | 36.6 µM [falling, partial curve, poor fit] | 
39 | CCN1CCN(c2cc(SC(C)C)nc(-c3ccc(OC)cc3)n2)CC1 | -26.2 | 7.31 µM [falling, single point] | 
40 | COc1ccccc1NC(=O)Cn1cc(C(=O)C(=O)N2CCOCC2)c2ccccc21 | 22.9 |  | 
41 | Cn1c(C(=O)NN)cc2cc(Oc3ccccc3)ccc21 | -5.49 | 0.92 µM [rising, full curve] | 
42 | O=C(N/N=C/c1ccc(OCc2ccccc2)cc1)c1ccc(O)cc1 | -11.8 | 0.517 µM [rising, single point] | 
43 | Cc1nc(C(=O)NC2CCOCC2)sc1C1(C)CC(c2ccccc2)=NO1 (stereo unspecified) | 8.26 | 0.00411 µM [rising, full curve, poor fit] | 
44 | CC(=O)N/C(=C\c1ccc(Br)s1)C(=O)O | 32.2 |  | 

Single records, from the list above.
CC(=O)N/C(=C\c1ccc(Br)s1)C(=O)O as listed: cell number change [%]: 32.2
Cc1nc(C(=O)NC2CCOCC2)sc1C1(C)CC(c2ccccc2)=NO1 (stereo unspecified) as listed: cell number change [%]: 8.26; AC50 [1]: 0.00411 µM [rising, full curve, poor fit]
Cc1ccc(C(=O)OCC(=O)NN2C(=O)NC3(CCC(C)CC3)C2=O)cc1 (stereo unspecified) as listed: cell number change [%]: -3.5

(list continues)

Row | Structure (SMILES) | cell number change [%] | AC50 [1] | AC50 [2]
45 | CC(=C/c1ccccc1)/C=N/n1c(C)n[nH]c1=S | -5.82 | 29.1 µM [rising, single point] | 
46 | COc1ccc(CCn2c(C)cc(C(=O)COC(=O)c3cnccn3)c2C)cc1 | 17.9 | 11.6 µM [rising, partial curve, poor fit] | 
47 | COc1ccc(-c2coc3cc(O)cc(O)c3c2=O)cc1OC | -12.1 | 4.11 µM [falling, full curve, poor fit] | 
48 | CC(=O)Oc1c(-c2ccco2)oc2ccccc2c1=O | -3.28 |  | 
49 | Cc1ccccc1N(CC(=O)NCC1CCCO1)C(=O)CCC(=O)Nc1nccs1 (stereo unspecified) | 9.57 | 2.91 µM [rising, single point] | 
50 | Clc1cc2nc(-c3cccnc3Cl)[nH]c2cc1Cl | 21.7 | 1.84 µM [rising, single point] | 
51 | O=C(COC(=O)/C=C/c1ccc(F)cc1)Nc1ccc(Cl)cn1 |  | 6.51 µM [rising, single point] | 
52 | CCC(C)N=Cc1c(NCc2ccco2)nc2c(C)cccn2c1=O (stereo unspecified) | -20.2 | 0.206 µM [rising, full curve, poor fit] | 
53 | CCCC1(C(=O)O)NC(c2cccc(OC)c2O)C2C(=O)N(c3ccccc3)C(=O)C21 (stereo unspecified) | 8.32 |  | 
54 | Cc1ccc(NCN2C(=O)C3CC=C(Cl)CC3C2=O)cc1 (stereo unspecified) | -35.7 | 0.92 µM [falling, full curve] | 4.11 µM [falling, full curve, poor fit]
55 | CS(=O)(=O)N1CCN(C(=S)NCc2ccc(F)cc2)CC1 | -67.1 | 1.16 µM [falling, full curve, poor fit] | 25.9 µM [falling, partial curve]
56 | CCN(Cc1ccccc1)C(=O)CN1C(=O)NC2(CC(C)CC(C)(C)C2)C1=O (stereo unspecified) | 30.9 |  | 16.4 µM [rising, partial curve, poor fit]
57 | CCc1ccc2nc(Nc3nc(COC)cc(=O)[nH]3)nc(C)c2c1 | -23.9 |  | 
58 | CCCCNC(=O)c1ccc(SCC(=O)N(CC)CC)c([N+](=O)[O-])c1 | 8.28 | 0.103 µM [rising, full curve, poor fit] | 
59 | Nc1cc(=O)[nH]c(SCCSc2ccc(F)cc2)n1 |  | 29.1 µM [falling, single point] | 
60 | COc1ccccc1CNCC(=O)Nc1ccc(C#N)cc1 | 12.7 |  | 
61 | COc1cc(C2NC(=O)CCC2[N+](=O)[O-])c(OC)cc1Br (stereo unspecified) | 11.1 |  | 
62 | O=C(c1ccncc1)N1CCN(C(=O)c2cccs2)CC1 | -24.6 | 10.3 µM [falling, partial curve] | 
63 | O=C(CNCc1cccs1)Nc1cc(S(=O)(=O)N2CCCC2)ccc1Cl | 18 |  | 
64 | Cc1ccccc1NC(=O)c1ccc(Nc2c([N+](=O)[O-])cc([N+](=O)[O-])c3ccccc23)cc1 | -8.17 | 29.1 µM [falling, single point] | 
65 | Cc1ccccc1NC(=O)C1CCC(C)(C(=O)O)C1(C)C (stereo unspecified) | -18.9 | 25.9 µM [falling, single point] | 
